Laboratory results published in PubChem BioAssay AID2685 (National Center for Advancing Translational Sciences (NCATS), 2010).
This is one part of the list. These are further read-outs of the screen, such as a control signal, another cell line or another target. No call is given for them. Most of these compounds were active or inconclusive in the main read-out, so they are no random draw. Words in brackets tell the shape of the fitted curve; partial curves, single points and poor fits give uncertain potencies.

Assay: qHTS Assay for Lipid Storage Modulators in Drosophila S3 Cells;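 for cell number change: cells counted by Cell Tracker Red CMTPX staining in the red channel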
Conditions: BODIPY lipid droplet fluorescence, 18-24 h; for cell number change: measured here: cell count max response, cells fed with added oleic acid
How it was run: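 Laser-scanning cytometry quantifies lipid droplet accumulation (500–530 nm total intensity; droplet/cell object ratio) in oleic acid-fed (400 uM added) Drosophila S3 cells treated with a concentration series. 20 uM Triacsin C defined 100% inhibition.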

[1] = measured here: cell number channel AC50, cells fed with added oleic acid
[2] = measured here: lipid fluorescence (Fed channel) AC50, cells fed with added oleic acid

| Structure (SMILES) | cell number change | AC50 [1] | AC50 [2] |
| --- | --- | --- | --- |
| COc1cc(C(C)=O)ccc1OCC(=O)Nc1ccccc1N1CCCCC1 | 16.6% | 4.11 µM [rising, single point] |  |
| O=C(CSC(=S)N1CCOCC1)Nc1ncc2c(n1)CC(c1ccco1)CC2=O (stereo unspecified) | 33.6% | 0.651 µM [rising, full curve, poor fit] | 25.9 µM [rising, partial curve] |
| Cc1cc(C(=O)Nc2ccc(N3CCOCC3)c3nonc23)ccc1[N+](=O)[O-] | 49.1% | 25.9 µM [rising, single point] | 0.58 µM [falling, single point] |
| CC1=C(C(=O)N2CCCC(N3CCN(c4cccc(Cl)c4)CC3)C2)OCCO1 (stereo unspecified) | 18.5% |  | 18.4 µM [rising, partial curve, poor fit] |
| c1ccc(NCc2cccc3ccccc23)nc1 | -4.12% |  | 0.517 µM [rising, partial curve, poor fit] |
| CC1=C/C(=N\NC(=S)NCCc2ccccc2)CC(C)(C)C1 | 36.1% |  |  |
| CCN(CC)S(=O)(=O)c1cccc(NC(=O)c2cc(-c3cccs3)nn2-c2ccccc2)c1 |  |  | 0.058 µM [falling, full curve, poor fit] |
| CCc1c(C)nc(N2CCN(c3ccc(Cl)cc3)CC2)[nH]c1=O | 18.2% |  |  |
| O=C(CNC(=O)C12CC3CC(CC(C3)C1)C2)N1CCN(S(=O)(=O)c2cccs2)CC1 | -66.7% | 29.1 µM [falling, single point] |  |
| Cc1cc(C)n(CC(=O)N/N=C/c2ccc(C)o2)n1 | -3.17% |  | 0.13 µM [falling, full curve, poor fit] |
| Cc1nn(-c2ccccc2)c(C)c1C(=O)OCC(=O)NC12CC3CC(CC(C3)C1)C2 | -36.4% | 29.1 µM [falling, single point] | 29.1 µM [falling, single point] |
| CC(=O)c1cc(CN2CCN(C3CCN(C(C)C)CC3)C(CCO)C2)cs1 (stereo unspecified) | -20.4% |  | 29.1 µM [falling, single point] |
| CC(Oc1ccc(C(C)(C)C)cc1)c1ccnc2nc(/N=C/N(C)C)nn12 (stereo unspecified) | -38.4% | 0.206 µM [falling, full curve, poor fit] |  |
| CN(C)C(=O)c1c([N+](=O)[O-])ncn1C | -0.874% |  | 25.9 µM [falling, partial curve, poor fit] |
| CCOC(=O)N1CCN(c2c(N3CC=C(c4ccccc4)CC3)c(=O)c2=O)CC1 | 15.3% |  | 16.4 µM [rising, partial curve] |
| CC1=CC(C)(C)Nc2ccc(OC(=O)C(C)N3C(=O)c4ccccc4C3=O)cc21 (stereo unspecified) |  |  | 6.51 µM [rising, single point] |
| Cc1cc(=O)oc2c(C)c(OCC(=O)N3CCN(c4cccc(Cl)c4)CC3)ccc12 | 15.3% |  | 6.51 µM [rising, single point] |
| COc1ccc(C(CNC(=O)c2oc3ccc(F)cc3c2C)N2CCCCC2)cc1 (stereo unspecified) | -0.895% |  | 0.00651 µM [rising, full curve, poor fit] |

| Structure (SMILES) | cell number change | AC50 [1] | AC50 [2] |
| --- | --- | --- | --- |
| CCCC(=O)Nc1ccc(Cl)c(NC(=O)C(C)(C)C)c1 | 0.119% |  | 6.51 µM [rising, single point] |
| O=C(c1ccco1)N1CCN(CCOc2ccccc2)CC1 | -25.4% | 2.91 µM [falling, full curve, poor fit] | 1.64 µM [falling, full curve, poor fit] |
| CC1CCCCN1C(=O)C1COc2ccccc2O1 (stereo unspecified) | 16.7% |  | 2.59 µM [falling, full curve, poor fit] |
| Cc1cc(/C=c2\sc3nc4ccccc4n3c2=O)c(C)n1-c1ccc(C(=O)O)cc1 | 37.9% |  | 0.00517 µM [falling, full curve, poor fit] |
| c1cc2ccc3ccc(-n4cnnn4)c4ccc(c1)c2c34 | 44.1% | 16.4 µM [rising, single point] | 29.1 µM [rising, single point] |
| Cc1ccc(N2C(=O)N(CC(=O)Nc3cc(Cl)ccc3C)C(=O)C2C)cc1 (stereo unspecified) | -49% | 16.4 µM [falling, single point] |  |
| N#Cc1c(NCCN)nc(-c2ccccc2)c2c1CCCC2 |  |  | 6.51 µM [rising, partial curve] |
| O=C(CN1CCN(C(=O)c2ccccc2)CC1)Nc1cc(S(=O)(=O)N2CCCC2)ccc1Cl | -56.7% | 16.4 µM [falling, partial curve, poor fit] | 13 µM [falling, partial curve] |
| CC(C)(C)c1ccc(CCC2OCC(CN3CCOCC3)O2)cc1 (stereo unspecified) | -35.9% | 5.17 µM [falling, partial curve] | 7.31 µM [falling, partial curve] |
| COc1cccc(Cn2nc3c4cc(F)ccc4n(Cc4ccc(F)cc4)cc-3c2=O)c1 | 50% | 0.366 µM [rising, full curve, poor fit] | 20.6 µM [rising, single point] |
| CC(C)(C)NC(=O)C(c1ccc(O)cc1)N(C(=O)CCC(=O)Nc1nccs1)c1ccc(F)cc1 (stereo unspecified) |  |  | 0.411 µM [rising, full curve, poor fit] |
| O=C(COC(=O)Cc1ccc(F)cc1)NC1CCCC1 | 22% |  |  |
| COc1ccc(NC(=O)C2CCC(C)(C(=O)O)C2(C)C)cc1 (stereo unspecified) | -0.809% |  |  |
| CCOc1ccc(NC(=S)NN(C)C(=S)Nc2ccc(OCC)cc2)cc1 | 21.3% |  | 2.91 µM [rising, partial curve] |
| CC(=O)OCCCN1C(=O)c2ccc(Br)cc2C1=O | -6.66% |  | 20.6 µM [falling, single point] |
| CCN(CC)CC(=O)Nc1c(Br)ccc2c1OCO2 | 12.6% |  | 4.11 µM [falling, full curve, poor fit] |
| Cc1cc(C)nc(SCC(=O)c2ccc(O)c(O)c2)n1 | -40.4% | 29.1 µM [falling, single point] |  |
| O=C(Cn1ncc2c3ccccc3n(Cc3ccccc3)c2c1=O)NCc1ccccn1 |  | 0.517 µM [rising, single point] |  |

Grouped by structure: the compounds so far containing a thiophene ring, fused or not (three)

| Structure (SMILES) | cell number change | AC50 [1] | AC50 [2] |
| --- | --- | --- | --- |
| CCN(CC)S(=O)(=O)c1cccc(NC(=O)c2cc(-c3cccs3)nn2-c2ccccc2)c1 |  |  | 0.058 µM [falling, full curve, poor fit] |
| O=C(CNC(=O)C12CC3CC(CC(C3)C1)C2)N1CCN(S(=O)(=O)c2cccs2)CC1 | -66.7% | 29.1 µM [falling, single point] |  |
| CC(=O)c1cc(CN2CCN(C3CCN(C(C)C)CC3)C(CCO)C2)cs1 (stereo unspecified) | -20.4% |  | 29.1 µM [falling, single point] |
